Assay results published in patent US11166941B2, “Synergistic nutritional compositions for enhancing ATP efficiency” (CELAGENEX RESEARCH (INDIA) PVT. LTD., priority 2020, dated 2021).

Tested on: HepG2 cells
Test: Estimation of cellular respiration by measuring cellular ATP levels (kit method) in HepG2 cells
Format: cell-based, Human
Settings: HepG2, 2 hours treatment, 500 μg/ml
Procedure: The test substances were evaluated for their in vitro effect on cellular energy by measuring cellular ATP levels in human Hepatocytes (HepG2) cell line. In the given experimental conditions, treatment with the test substances improved cellular ATP levels in vitro [J Immunol Methods; 1986; 89: 271-277]; [Proc Nal Acad Sci USA; 2009; 106: 15651-15656].
For test substance ABC, the test substances were combined in the weight ratio of 1:0.05:0.01. A weight of about 10 mg of ABC was dissolved in 100 μl of DMSO and the volume was made up to 1 ml with DMEM-HG (Dulbecco's Modified Eagle Medium High Glucose). For individual test substances A, B and C, about 10 mg of all the test substances were weighed and separately dissolved with 100 μl of DMSO and volume was made up with DMEM-HG supplemented with 2% inactivated FBS to obtain a stock solution of 1 mg/ml concentration. The samples were further sterilized by 0.22 syringe filtration. […]
HepG2 cells were trypsinized from stock culture flasks and the cell count was adjusted to 1.0×10^5 cells/ml to obtain a cell suspension that was seeded into a 6-well plate. […] At the end of the experiment, the optical density was read at 570 nm using microplate reader. From the absorbance values, the cellular ATP levels were estimated using kit protocol and the concentration of cellular ATP in treated groups were determined in comparison to the control groups.

manganese (II) sulphate monohydrate [Manganese-Sulphate (C)]
OD values (treated) @ 570 nm: 0.103
